Results from PMC10944485, “Structure of full-length ERGIC-53 in complex with MCFD2 for cargo transport” (Nature Communications, 2024).
Results are given in words; binding and its absence hold for the method and conditions named. Some binding calls cover weakened binding; strength is not graded here.

Molecular target: ERGIC-53 ΔL1 mutant (lacking the L1 loop between S-H1 and S-H2, Gln313 to Glu322) (human) (UniProt P49257)
Test: non-reducing SDS-PAGE with Western blot; lysate of transfected ERGIC-53 KO cells on a nonreducing SDS gel; migration pattern compared with the WT

B1: ERGIC-53 ΔL1 mutant (lacking the L1 loop between S-H1 and S-H2, Gln313 to Glu322) (receptor, UniProt P49257)
chain: DGVGGDPAVALPHRRFEYKYSFKGPHLVQSDGTVPFWAHAGNAIPSSDQIRVAPSLKSQRGSVWTKTKAAFENWEVEVTFRVTGRGRIGADGLAIWYAENQGLEGPVFGSADLWNGVGIFFDSFDNDGKKNNPAIVIIGNNGQIHYDHQNDGASQALASCQRDFRNKPYPVRAKITYYQNTLTVMINNGFTPDKNDYEFCAKVENMIIPAQGHFGISAATGGLADDHDVLSFLTFQLTEPGKEPPTPDKEISEKEKEKYQEEFEHFQQELDKKKEEFQKGHPFESVGDRELRQVFEGQNRIHLEIKQLNRQLDMILDEQRRYVSSLTEEISKRGAGMPGQHGQITQQELDTVVKTQHEILRQVNEMKNSMSETVRLVSGMQHPGSAGGVYETTQHFIDIKEHLHIVKRDIDNLVQRNMPSNEKPKCPELPPFPSCLSTVHFIIFVVVQTVLFIGYIMYRSQQEAAAKKFF
binding: binds
